The target in experiment [1] is PPP3CA (endogenous, Jurkat T-ALL cells) (human (endogenous in Jurkat)) (UniProt Q08209). Kind of experiment: co-IP; endogenous PPP3CA immunoprecipitated from Jurkat lysates (RIPA lysis, diluted 1:3 with CO-IP buffer) with a mouse antibody against PPP3CA or irrelevant mouse Ig; basal conditions and after 1 h ionomycin, cyclosporin A or vehicle; immunoblot of endogenous partners. A general note: In western blotting, separated proteins are transferred to a membrane and probed.

Protein sequences, listed by entry. Tags and fused reporters are not part of them.
UniProt Q9C0K0: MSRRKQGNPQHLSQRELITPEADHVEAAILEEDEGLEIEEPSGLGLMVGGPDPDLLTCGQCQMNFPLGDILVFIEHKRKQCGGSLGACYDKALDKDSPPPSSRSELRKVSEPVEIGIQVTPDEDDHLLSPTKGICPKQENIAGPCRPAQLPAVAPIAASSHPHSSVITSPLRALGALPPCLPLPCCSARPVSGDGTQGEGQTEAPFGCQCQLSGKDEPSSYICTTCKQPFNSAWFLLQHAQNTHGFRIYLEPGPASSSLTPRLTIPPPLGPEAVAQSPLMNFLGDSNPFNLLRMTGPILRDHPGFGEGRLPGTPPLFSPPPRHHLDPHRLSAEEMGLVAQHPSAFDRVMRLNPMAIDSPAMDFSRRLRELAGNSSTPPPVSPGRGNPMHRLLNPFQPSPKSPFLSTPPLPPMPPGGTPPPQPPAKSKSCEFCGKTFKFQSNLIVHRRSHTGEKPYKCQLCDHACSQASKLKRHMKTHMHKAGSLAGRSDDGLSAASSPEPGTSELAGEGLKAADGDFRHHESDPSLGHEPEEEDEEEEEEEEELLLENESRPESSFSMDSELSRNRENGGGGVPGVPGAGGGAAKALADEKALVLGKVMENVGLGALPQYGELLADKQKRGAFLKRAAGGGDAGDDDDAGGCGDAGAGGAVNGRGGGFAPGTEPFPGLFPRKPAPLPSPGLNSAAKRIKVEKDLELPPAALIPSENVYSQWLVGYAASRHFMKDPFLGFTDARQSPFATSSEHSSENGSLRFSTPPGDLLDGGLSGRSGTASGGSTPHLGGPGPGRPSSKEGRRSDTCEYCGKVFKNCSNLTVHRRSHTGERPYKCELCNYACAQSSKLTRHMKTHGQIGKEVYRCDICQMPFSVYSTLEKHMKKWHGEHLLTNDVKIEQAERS
UniProt O60884: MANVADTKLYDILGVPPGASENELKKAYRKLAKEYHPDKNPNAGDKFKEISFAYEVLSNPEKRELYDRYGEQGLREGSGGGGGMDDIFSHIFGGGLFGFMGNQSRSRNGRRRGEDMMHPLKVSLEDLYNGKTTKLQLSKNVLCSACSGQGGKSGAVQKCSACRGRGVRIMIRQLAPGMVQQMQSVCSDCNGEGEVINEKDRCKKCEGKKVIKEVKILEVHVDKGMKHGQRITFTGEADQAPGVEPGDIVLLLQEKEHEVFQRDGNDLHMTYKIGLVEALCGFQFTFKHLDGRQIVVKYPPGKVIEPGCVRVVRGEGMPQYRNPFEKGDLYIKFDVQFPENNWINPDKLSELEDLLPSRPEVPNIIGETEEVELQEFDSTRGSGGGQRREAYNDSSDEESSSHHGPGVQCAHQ
UniProt P35637: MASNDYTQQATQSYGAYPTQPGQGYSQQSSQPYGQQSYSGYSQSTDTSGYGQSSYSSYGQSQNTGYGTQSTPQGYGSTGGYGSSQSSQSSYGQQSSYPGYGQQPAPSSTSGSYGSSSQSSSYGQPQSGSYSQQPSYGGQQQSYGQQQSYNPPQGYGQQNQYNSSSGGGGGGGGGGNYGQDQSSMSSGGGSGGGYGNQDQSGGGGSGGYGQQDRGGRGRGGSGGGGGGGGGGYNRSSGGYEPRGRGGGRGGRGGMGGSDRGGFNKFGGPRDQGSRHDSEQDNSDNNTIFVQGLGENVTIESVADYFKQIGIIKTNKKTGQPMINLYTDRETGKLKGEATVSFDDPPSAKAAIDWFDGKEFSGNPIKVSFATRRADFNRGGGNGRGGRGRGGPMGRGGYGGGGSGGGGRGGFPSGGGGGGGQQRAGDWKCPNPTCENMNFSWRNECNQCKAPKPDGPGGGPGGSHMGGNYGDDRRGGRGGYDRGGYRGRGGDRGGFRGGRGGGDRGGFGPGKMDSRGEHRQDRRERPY
UniProt P49841: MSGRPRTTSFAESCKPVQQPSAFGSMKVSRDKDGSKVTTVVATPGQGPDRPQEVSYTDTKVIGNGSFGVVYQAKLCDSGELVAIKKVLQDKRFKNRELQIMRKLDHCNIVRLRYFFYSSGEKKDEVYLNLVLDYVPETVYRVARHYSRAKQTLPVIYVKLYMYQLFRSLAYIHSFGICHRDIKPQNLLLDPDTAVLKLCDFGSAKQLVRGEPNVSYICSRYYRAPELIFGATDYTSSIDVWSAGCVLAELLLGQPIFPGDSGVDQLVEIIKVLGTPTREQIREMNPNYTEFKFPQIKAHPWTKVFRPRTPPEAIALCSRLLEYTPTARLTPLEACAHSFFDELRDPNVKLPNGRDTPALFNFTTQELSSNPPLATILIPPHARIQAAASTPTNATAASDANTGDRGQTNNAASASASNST
UniProt Q16666: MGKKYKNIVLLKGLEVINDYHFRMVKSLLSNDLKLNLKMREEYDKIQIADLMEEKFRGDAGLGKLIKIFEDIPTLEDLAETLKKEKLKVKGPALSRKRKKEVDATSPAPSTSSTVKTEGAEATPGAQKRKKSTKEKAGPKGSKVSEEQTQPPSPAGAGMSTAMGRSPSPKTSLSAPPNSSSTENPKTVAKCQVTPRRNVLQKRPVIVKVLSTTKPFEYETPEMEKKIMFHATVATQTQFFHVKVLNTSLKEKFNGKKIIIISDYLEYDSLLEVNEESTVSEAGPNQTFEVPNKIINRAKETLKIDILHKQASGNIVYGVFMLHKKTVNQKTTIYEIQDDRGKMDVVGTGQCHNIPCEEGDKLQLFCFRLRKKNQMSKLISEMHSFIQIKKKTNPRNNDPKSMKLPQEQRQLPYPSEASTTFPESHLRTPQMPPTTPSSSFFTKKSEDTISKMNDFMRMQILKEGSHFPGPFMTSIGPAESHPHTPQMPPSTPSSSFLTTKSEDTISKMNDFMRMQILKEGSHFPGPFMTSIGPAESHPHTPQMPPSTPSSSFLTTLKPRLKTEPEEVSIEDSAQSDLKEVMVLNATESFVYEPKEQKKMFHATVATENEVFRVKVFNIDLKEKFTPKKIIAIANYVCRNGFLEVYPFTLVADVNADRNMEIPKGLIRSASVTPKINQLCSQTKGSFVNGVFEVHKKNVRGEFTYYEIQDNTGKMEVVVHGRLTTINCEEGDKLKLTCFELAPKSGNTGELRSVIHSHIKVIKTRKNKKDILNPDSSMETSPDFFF
UniProt P52732: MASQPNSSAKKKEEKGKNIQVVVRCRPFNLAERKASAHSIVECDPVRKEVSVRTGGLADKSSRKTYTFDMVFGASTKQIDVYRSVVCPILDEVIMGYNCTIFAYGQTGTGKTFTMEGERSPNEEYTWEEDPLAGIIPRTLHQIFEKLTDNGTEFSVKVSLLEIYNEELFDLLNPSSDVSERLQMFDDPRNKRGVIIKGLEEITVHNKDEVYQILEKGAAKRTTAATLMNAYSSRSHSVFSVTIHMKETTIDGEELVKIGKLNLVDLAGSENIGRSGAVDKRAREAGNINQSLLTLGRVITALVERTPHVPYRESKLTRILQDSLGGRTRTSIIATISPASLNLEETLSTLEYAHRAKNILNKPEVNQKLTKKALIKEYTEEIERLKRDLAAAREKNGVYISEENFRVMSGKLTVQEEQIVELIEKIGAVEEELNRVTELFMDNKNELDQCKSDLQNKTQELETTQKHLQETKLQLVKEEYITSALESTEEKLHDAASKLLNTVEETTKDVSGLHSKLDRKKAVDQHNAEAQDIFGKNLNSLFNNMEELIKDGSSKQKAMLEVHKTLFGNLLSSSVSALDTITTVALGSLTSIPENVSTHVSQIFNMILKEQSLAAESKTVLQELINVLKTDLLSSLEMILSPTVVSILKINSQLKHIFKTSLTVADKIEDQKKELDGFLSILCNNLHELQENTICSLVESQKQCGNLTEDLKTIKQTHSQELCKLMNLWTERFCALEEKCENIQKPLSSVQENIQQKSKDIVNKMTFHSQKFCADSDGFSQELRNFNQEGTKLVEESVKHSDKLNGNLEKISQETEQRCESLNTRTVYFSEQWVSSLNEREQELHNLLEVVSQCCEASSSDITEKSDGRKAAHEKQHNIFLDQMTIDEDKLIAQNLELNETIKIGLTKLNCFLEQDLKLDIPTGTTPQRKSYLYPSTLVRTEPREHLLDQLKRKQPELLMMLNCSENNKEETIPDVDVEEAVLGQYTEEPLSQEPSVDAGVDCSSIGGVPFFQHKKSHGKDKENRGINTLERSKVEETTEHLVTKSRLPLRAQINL
UniProt Q15208: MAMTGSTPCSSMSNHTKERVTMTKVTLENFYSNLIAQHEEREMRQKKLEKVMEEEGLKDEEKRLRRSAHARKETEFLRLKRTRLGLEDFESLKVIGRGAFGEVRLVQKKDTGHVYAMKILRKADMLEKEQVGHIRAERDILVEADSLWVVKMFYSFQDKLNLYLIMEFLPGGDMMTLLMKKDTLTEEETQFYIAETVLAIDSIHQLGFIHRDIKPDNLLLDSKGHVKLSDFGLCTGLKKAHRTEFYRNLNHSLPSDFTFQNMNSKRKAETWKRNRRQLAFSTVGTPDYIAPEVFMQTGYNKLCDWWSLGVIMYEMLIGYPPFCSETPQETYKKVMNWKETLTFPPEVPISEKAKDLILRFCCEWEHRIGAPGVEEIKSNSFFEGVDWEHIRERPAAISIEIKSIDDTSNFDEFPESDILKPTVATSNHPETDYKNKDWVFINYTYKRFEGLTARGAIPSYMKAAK

For experiment [2], the target named is FLAG/HA epitope-tagged PPP3CA constitutively active mutant (F/H-PPP3CA*), stably expressed in Jurkat cells (human) (UniProt Q08209). Kind of experiment: co-IP; F/H-PPP3CA*-expressing or mock-transduced Jurkat cells; IP anti-FLAG; immunoblot of endogenous partners.
The target in experiment [3] is FLAG/HA epitope-tagged PPP3CA constitutively active mutant (F/H-PPP3CA*), transfected in HEK 293T cells (human) (UniProt Q08209). Briefly: co-IP; HEK 293T co-transfected with F/H-PPP3CA* and each partner; PPP3CA* immunoprecipitated with anti-FLAG or anti-HA beads overnight at 4°C in CO-IP buffer (50 mM Tris-HCl pH 7.9, 150 mM NaCl, 1 mM EDTA, 0.1% NP-40); partner detected by blot of its tag.

The target in experiment [4] is T1, His-tagged GFP-KHSRP, transfected in HEK 293T (UniProt Q92945).
T1 sequence: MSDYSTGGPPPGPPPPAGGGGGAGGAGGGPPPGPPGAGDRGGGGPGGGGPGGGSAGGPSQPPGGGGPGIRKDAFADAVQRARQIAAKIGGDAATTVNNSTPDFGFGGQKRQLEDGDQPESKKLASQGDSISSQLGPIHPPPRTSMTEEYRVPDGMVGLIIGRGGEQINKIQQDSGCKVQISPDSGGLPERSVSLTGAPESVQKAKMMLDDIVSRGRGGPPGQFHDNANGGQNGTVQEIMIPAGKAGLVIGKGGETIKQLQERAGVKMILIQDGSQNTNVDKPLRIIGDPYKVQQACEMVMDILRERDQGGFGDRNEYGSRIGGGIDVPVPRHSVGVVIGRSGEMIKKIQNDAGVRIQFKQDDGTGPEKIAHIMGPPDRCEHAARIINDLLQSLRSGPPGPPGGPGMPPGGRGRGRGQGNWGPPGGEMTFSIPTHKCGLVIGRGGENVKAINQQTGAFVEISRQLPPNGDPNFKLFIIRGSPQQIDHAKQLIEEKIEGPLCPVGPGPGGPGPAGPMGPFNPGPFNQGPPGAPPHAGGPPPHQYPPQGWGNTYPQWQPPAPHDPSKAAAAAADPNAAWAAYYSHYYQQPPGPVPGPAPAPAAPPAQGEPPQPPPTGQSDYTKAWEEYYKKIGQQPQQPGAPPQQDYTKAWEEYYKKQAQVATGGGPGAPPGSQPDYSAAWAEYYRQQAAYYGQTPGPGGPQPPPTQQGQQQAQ
Kind of experiment: pull-down; HEK 293T co-transfected with F/H-PPP3CA* and a His-tagged partner; His-pulldown on HisPur Cobalt resin overnight at 4°C in TEN buffer (20 mM Tris-HCl pH 7.5, 150 mM NaCl, 5 mM MgCl2, 0.1% NP-40, 10 mM imidazole, 10% glycerol); PPP3CA* detected by blot.

In experiment [5] the target is FLAG-HA-Histidine tagged (F/H-His) hnRNPU, transfected in HEK 293T (UniProt Q00839). Described as above.
The target in experiment [6] is T2, FLAG-HA-Histidine tagged (F/H-His) PRDX1, transfected in HEK 293T (UniProt Q06830).
T2 sequence: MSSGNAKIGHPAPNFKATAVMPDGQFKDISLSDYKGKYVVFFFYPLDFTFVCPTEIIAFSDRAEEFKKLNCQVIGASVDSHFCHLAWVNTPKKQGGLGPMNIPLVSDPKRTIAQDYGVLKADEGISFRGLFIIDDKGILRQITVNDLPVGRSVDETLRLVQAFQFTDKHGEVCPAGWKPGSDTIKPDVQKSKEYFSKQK
The description is as above.

No constants are given. Whether binding was seen depends on the method and setting. Binding seen in cells or lysates may run through a third protein. Some entries that bind do so weakly or less than the wild type. For some assays here: Sequences can lack the tags named with a protein.

On to “BCL11b (endogenous, Jurkat) (from UniProt Q9C0K0 1-894)”, for which the binding result in experiment [1] and in experiment [2] was “binds” in each case. Take “BCL11b, FLAG-detected, transfected in HEK 293T (from UniProt Q9C0K0 1-894)”: in experiment [3], the binding entry is “binds”.

“DNAJA2, V5-detected, transfected in HEK 293T (from UniProt O60884 1-412)”: the binding result in experiment [3] was “binds”.

“FLAG/HA epitope-tagged PPP3CA constitutively active mutant (F/H-PPP3CA*), transfected in HEK 293T cells (from UniProt Q08209 1-390) (domain or fragment)”: the binding result in experiment [4], in experiment [5] and in experiment [6] was “binds” in each case. Take “FLNa, myc-detected, transfected in HEK 293T (from UniProt P21333 1-2647)”: in experiment [3], the binding result is listed as “binds”.

Consider “FUS, V5-detected, transfected in HEK 293T (from UniProt P35637 1-526)”, for which the binding result in experiment [3] is recorded as “binds”. “GSK3β (endogenous, Jurkat) (from UniProt P49841 1-420)”: the binding entry in experiment [1] and in experiment [2] was “binds” each time. On to “GSK3β, HA-detected, transfected in HEK 293T (from UniProt P49841 1-420)”, for which the binding result in experiment [3] is recorded as “binds”. Same read-out and setting: with “HSPA8, V5-detected, transfected in HEK 293T (from UniProt P11142 1-646)” the entry was “binds”; with “IFI-16, FLAG-detected, transfected in HEK 293T (from UniProt Q16666 1-785)”, “binds”. Still for that read-out and setting: under “KIF-11, HA-detected, transfected in HEK 293T (from UniProt P52732 1-1056)” stands “binds”. Consider “NPM1 (endogenous, Jurkat) (from UniProt P06748 1-294)”, for which the binding entry in experiment [2] is recorded as “binds”. Turning to “NPM1, FLAG-detected, transfected in HEK 293T (from UniProt P06748 1-294)”, the binding entry in experiment [3] is given as “binds”. Regarding “PRMT5, HA-detected, transfected in HEK 293T (from UniProt O14744 1-637)”, the binding entry in experiment [3] is listed as “binds”. The same measure, in the same setting: with “RBBP4, myc-detected, transfected in HEK 293T (from UniProt Q09028 1-425)” the entry was “binds”; with “STK38, FLAG-detected, transfected in HEK 293T (from UniProt Q15208 1-465)”, “binds”.

Values taken from paper PMC5216755.
